Reference: ChEMBL document CHEMBL4316593 (Eur J Med Chem, 2019)
The source gives many values for each of these; only a part stands here.

Experiments:
Type in all cases: cell-based
Settings in all cases: U-87MG ATCC
[1] = Inhibition of RTK/PI3K/AKT/mTOR signaling in human U87 cells assessed as down regulation of C7orf26 gene expression at cytotoxic IC50 measured after 48 hrs relative to control
[2] = Inhibition of RTK/PI3K/AKT/mTOR signaling in human U87 cells assessed as up regulation of PROM1 gene expression at cytotoxic IC50 measured after 48 hrs relative to control
[3] = Inhibition of RTK/PI3K/AKT/mTOR signaling in human U87 cells assessed as down regulation of TAF7 gene expression at cytotoxic IC50 measured after 48 hrs relative to control
[4] = Inhibition of RTK/PI3K/AKT/mTOR signaling in human U87 cells assessed as up regulation of RPL37 gene expression at cytotoxic IC50 measured after 48 hrs relative to control
[5] = Inhibition of RTK/PI3K/AKT/mTOR signaling in human U87 cells assessed as down regulation of NDUFB6 gene expression at cytotoxic IC50 measured after 48 hrs relative to control
[6] = Inhibition of RTK/PI3K/AKT/mTOR signaling in human U87 cells assessed as down regulation of COQ10B gene expression at cytotoxic IC50 measured after 48 hrs relative to control
[7] = Inhibition of RTK/PI3K/AKT/mTOR signaling in human U87 cells assessed as down regulation of GCLM gene expression at cytotoxic IC50 measured after 48 hrs relative to control
[8] = Inhibition of RTK/PI3K/AKT/mTOR signaling in human U87 cells assessed as up regulation of eukaryotic translation initiation factor 4B gene expression at cytotoxic IC50 measured after 48 hrs relative to control
[9] = Inhibition of RTK/PI3K/AKT/mTOR signaling in human U87 cells assessed as down regulation of DOPEY2 gene expression at cytotoxic IC50 measured after 48 hrs relative to control
[10] = Inhibition of RTK/PI3K/AKT/mTOR signaling in human U87 cells assessed as up regulation of one cut homeobox 3 gene expression at cytotoxic IC50 measured after 48 hrs relative to control
[11] = Inhibition of RTK/PI3K/AKT/mTOR signaling in human U87 cells assessed as up regulation of translocation associated membrane protein 1 gene expression at cytotoxic IC50 measured after 48 hrs relative to control
[12] = Inhibition of RTK/PI3K/AKT/mTOR signaling in human U87 cells assessed as down regulation of DCAF13 gene expression at cytotoxic IC50 measured after 48 hrs relative to control
[13] = Inhibition of RTK/PI3K/AKT/mTOR signaling in human U87 cells assessed as down regulation of ZSWIM8 gene expression at cytotoxic IC50 measured after 48 hrs relative to control
[14] = Inhibition of RTK/PI3K/AKT/mTOR signaling in human U87 cells assessed as down regulation of ZNF721 gene expression at cytotoxic IC50 measured after 48 hrs relative to control
[15] = Inhibition of RTK/PI3K/AKT/mTOR signaling in human U87 cells assessed as up regulation of NOTCH1 gene expression at cytotoxic IC50 measured after 48 hrs relative to control
[16] = Inhibition of RTK/PI3K/AKT/mTOR signaling in human U87 cells assessed as up regulation of B4GALNT4 gene expression at cytotoxic IC50 measured after 48 hrs relative to control
[17] = Inhibition of RTK/PI3K/AKT/mTOR signaling in human U87 cells assessed as up regulation of HR, lysine demethylase and nuclear receptor corepressor gene expression at cytotoxic IC50 measured after 48 hrs relative to control
[18] = Inhibition of RTK/PI3K/AKT/mTOR signaling in human U87 cells assessed as down regulation of MRPL49 gene expression at cytotoxic IC50 measured after 48 hrs relative to control
[19] = Inhibition of RTK/PI3K/AKT/mTOR signaling in human U87 cells assessed as up regulation of TMEM94 gene expression at cytotoxic IC50 measured after 48 hrs relative to control
[20] = Inhibition of RTK/PI3K/AKT/mTOR signaling in human U87 cells assessed as up regulation of MTMR4 gene expression at cytotoxic IC50 measured after 48 hrs relative to control
[21] = Inhibition of RTK/PI3K/AKT/mTOR signaling in human U87 cells assessed as up regulation of SCNN1A gene expression at cytotoxic IC50 measured after 48 hrs relative to control
[22] = Inhibition of RTK/PI3K/AKT/mTOR signaling in human U87 cells assessed as down regulation of TPM3 gene expression at cytotoxic IC50 measured after 48 hrs relative to control
[23] = Inhibition of RTK/PI3K/AKT/mTOR signaling in human U87 cells assessed as down regulation of BTBD10 gene expression at cytotoxic IC50 measured after 48 hrs relative to control
[24] = Inhibition of RTK/PI3K/AKT/mTOR signaling in human U87 cells assessed as down regulation of IL1R1 gene expression at cytotoxic IC50 measured after 48 hrs relative to control
[25] = Inhibition of RTK/PI3K/AKT/mTOR signaling in human U87 cells assessed as up regulation of phosphohistidine phosphatase 1 gene expression at cytotoxic IC50 measured after 48 hrs relative to control
[26] = Inhibition of RTK/PI3K/AKT/mTOR signaling in human U87 cells assessed as up regulation of interferon regulatory factor 2 binding protein like gene expression at cytotoxic IC50 measured after 48 hrs relative to control
[27] = Inhibition of RTK/PI3K/AKT/mTOR signaling in human U87 cells assessed as up regulation of SEMA3B gene expression at cytotoxic IC50 measured after 48 hrs relative to control
[28] = Inhibition of RTK/PI3K/AKT/mTOR signaling in human U87 cells assessed as up regulation of PLAU gene expression at cytotoxic IC50 measured after 48 hrs relative to control
[29] = Inhibition of RTK/PI3K/AKT/mTOR signaling in human U87 cells assessed as down regulation of TRIM24 gene expression at cytotoxic IC50 measured after 48 hrs relative to control
[30] = Inhibition of RTK/PI3K/AKT/mTOR signaling in human U87 cells assessed as down regulation of PEA15 gene expression at cytotoxic IC50 measured after 48 hrs relative to control
[31] = Inhibition of RTK/PI3K/AKT/mTOR signaling in human U87 cells assessed as up regulation of PATJ gene expression at cytotoxic IC50 measured after 48 hrs relative to control
[32] = Inhibition of RTK/PI3K/AKT/mTOR signaling in human U87 cells assessed as down regulation of MEX3B gene expression at cytotoxic IC50 measured after 48 hrs relative to control

CC(=O)C(=NNc1ccccc1C#N)C(C)=O
log2FC [1]: -1.07
log2FC [2]: 2.38
log2FC [3]: -0.832
log2FC [4]: 0.415
log2FC [5]: -0.957
log2FC [6]: -0.878
log2FC [7]: -1.19
log2FC [8]: 0.846
log2FC [9]: -0.798
log2FC [10]: 0.868
log2FC [11]: 0.794
log2FC [12]: -0.441
log2FC [13]: -0.753
log2FC [14]: -1.37
log2FC [15]: 0.636
log2FC [16]: 1.85
log2FC [17]: 1.34
log2FC [18]: -0.527
log2FC [19]: 0.605
log2FC [20]: 0.62
log2FC [21]: 2.28
log2FC [22]: -0.424
log2FC [23]: -0.983
log2FC [24]: -1.25
log2FC [25]: 0.793
log2FC [26]: 0.894
log2FC [27]: 2.4
log2FC [28]: 2.38
log2FC [29]: -0.614
log2FC [30]: -0.848
log2FC [31]: 0.516
log2FC [32]: -1.57
